Results deposited as PubChem BioAssay AID652243 (Drosophila RNAi Screening Center, 2013).
Aim: 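Fly regulators of androgen-dependent reporter output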 (primary screen). Cells: Drosophila S2R+ cells. Reagents: long dsRNA against Drosophila genes. Duration: 72 h (48 h, then 24 h hormone). Conditions: synthetic androgen R1881 at 10 nM for 24 h. Read-out: 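Per-well raw luminescence of the androgen-driven firefly reporter and of the Renilla control, two replicates each, without normalisation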. Direction: firefly reporter light: higher = more light from androgen-responsive reporter; Renilla control light: higher = more constitutive control signal (cell number, transfection). Hit rule: 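Across duplicate plates, a knock-down whose log firefly/Renilla ratio shifted a set fold down or up from the GFP/LacZ control mean was a hit; the downward cut appears as both 1.5 and 3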. Meaning of the calls: active = hit: reporter lowered or raised; inactive = no hit.
The deposit covers about 24,000 reagents; below is an unselected part of those that have a named target and a result. In the full data, 246 (1%) were called active. 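Plates not normalised; calls are printed but the firefly/Renilla ratio behind them is not deposited; fold cut for lowering reported inconsistently.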 The raw values are shown without normalisation. Names joined by + are all predicted targets of the reagent. No sequences are given here. The record does not give: the amount of reagent.

gene | dsRNA | firefly reporter light, replicate 1 | firefly reporter light, replicate 2 | Renilla control light, replicate 1 | Renilla control light, replicate 2 | call
Faf2 (Fas-associated factor 2) | DRSC03325 | 1.16e6 | 3.62e5 | 1.41e6 | 8.40e5 | inactive
Ptpmeg2 (Protein tyrosine phosphatase Meg2) | DRSC18277 | 1.24e5 | 2.21e5 | 2.32e6 | 3.01e6 | inactive
Ptpmeg2 (Protein tyrosine phosphatase Meg2) | DRSC18278 | 1.89e5 | 1.47e5 | 2.15e6 | 1.97e6 | inactive
Ptpmeg2 (Protein tyrosine phosphatase Meg2) | DRSC23303 | 5.52e5 | 4.45e5 | 1.38e6 | 1.06e6 | inactive
Ptpmeg2 (Protein tyrosine phosphatase Meg2) | DRSC26646 | 3.80e5 | 4.26e5 | 5.53e5 | 7.39e5 | inactive
CG13073 | DRSC09956 | 1.08e5 | 1.05e5 | 1.43e6 | 1.28e6 | inactive
CG13073 | DRSC24693 | 8.10e5 | 5.95e5 | 8.11e5 | 9.59e5 | inactive
MCU (Mitochondrial calcium uniporter) | DRSC10339 | 2.17e5 | 1.66e5 | 2.81e6 | 2.57e6 | inactive
Cyp9h1 (Cytochrome P450 9h1) | DRSC07391 | 2.53e5 | 2.44e5 | 1.39e6 | 1.33e6 | inactive
Cyp9h1 (Cytochrome P450 9h1) | DRSC26493 | 2.25e5 | 2.96e5 | 3.62e5 | 3.87e5 | inactive
CG8908 | DRSC07297 | 80138 | 72346 | 9.95e5 | 9.94e5 | inactive
CG33645 | DRSC37853 | 4.63e5 | 3.73e5 | 1.01e6 | 1.33e6 | inactive
Lip2 (Lipase 2) | DRSC02577 | 2.24e5 | 2.63e5 | 1.66e6 | 1.66e6 | inactive
Lip2 (Lipase 2) | DRSC02578 | 4.44e5 | 3.05e5 | 2.31e6 | 1.76e6 | inactive
btsz (bitesize) | DRSC15320 | 1.30e5 | 1.08e5 | 1.89e6 | 2.09e6 | inactive
btsz (bitesize) | DRSC16231 | 86561 | 1.19e5 | 2.32e6 | 2.38e6 | inactive
btsz (bitesize) | DRSC23250 | 5.13e5 | 5.13e5 | 1.17e6 | 1.44e6 | inactive
btsz (bitesize) | DRSC28867 | 4.13e5 | 4.11e5 | 1.25e6 | 1.45e6 | inactive
CG13041 | DRSC09922 | 2.57e5 | 2.68e5 | 2.75e6 | 1.91e6 | inactive
CG13041 | DRSC26793 | 3.87e5 | 3.73e5 | 5.40e5 | 4.65e5 | inactive
CrzR (Corazonin receptor) | DRSC09781 | 1.94e5 | 2.07e5 | 2.54e6 | 2.50e6 | inactive
CrzR (Corazonin receptor) | DRSC09782 | 1.59e5 | 1.59e5 | 1.91e6 | 1.94e6 | inactive
CG30371 | DRSC06835 | 2.50e5 | 1.81e5 | 1.46e6 | 1.41e6 | inactive
Pym (Partner of Y14 and Mago) | DRSC23017 | 7.19e5 | 9.06e5 | 1.38e6 | 2.02e6 | inactive

Limited to “firefly reporter light, replicate 1”, for 3 of the entries above:
Ptpmeg2 (Protein tyrosine phosphatase Meg2) [DRSC26646]	3.80e5
CG13073 [DRSC09956]	1.08e5
CG13073 [DRSC24693]	8.10e5

The list goes on:
gene | dsRNA | firefly reporter light, replicate 1 | firefly reporter light, replicate 2 | Renilla control light, replicate 1 | Renilla control light, replicate 2 | call
Nepl21 (Neprilysin-like 21) | DRSC14133 | 1.73e5 | 1.08e5 | 7.32e5 | 4.35e5 | inactive
GCS2beta (Glucosidase 2 beta subunit) | DRSC02960 | 3.65e5 | 3.35e5 | 1.87e6 | 2.97e6 | inactive
GCS2beta (Glucosidase 2 beta subunit) | DRSC30037 | 3.65e5 | 2.36e5 | 9.31e5 | 9.27e5 | inactive
BORCS7 + CG13430 | DRSC06392 | 8.47e5 | 6.13e5 | 1.43e6 | 8.50e5 | inactive
BORCS7 + CG13430 | DRSC06707 | 1.34e5 | 1.31e5 | 1.11e6 | 1.12e6 | inactive
msps (mini spindles) | DRSC17004 | 83059 | 59383 | 5.72e5 | 5.44e5 | inactive
Pif1A + Pif1B | DRSC14142 | 68576 | 87472 | 1.53e6 | 1.20e6 | inactive
Pif1A + Pif1B | DRSC14380 | 79195 | 75028 | 2.94e5 | 3.80e5 | inactive
Pif1A + Pif1B | DRSC14381 | 1.48e5 | 1.53e5 | 2.45e6 | 1.95e6 | inactive
Bro | DRSC08149 | 35881 | 63942 | 9.64e5 | 9.66e5 | inactive
CstF64 (Cleavage stimulation factor 64 kD subunit) | DRSC16616 | 39789 | 54215 | 9.31e5 | 1.19e6 | active
CstF64 (Cleavage stimulation factor 64 kD subunit) | DRSC29486 | 3.79e5 | 4.74e5 | 9.78e5 | 9.78e5 | inactive
CG15390 | DRSC00404 | 1.06e5 | 98858 | 6.86e5 | 9.88e5 | inactive
Fbxl7 (F-box and leucine-rich repeat protein 7) | DRSC15553 | 2.18e5 | 2.38e5 | 3.08e6 | 3.56e6 | inactive
Fbxl7 (F-box and leucine-rich repeat protein 7) | DRSC25664 | 1.03e6 | 1.13e6 | 1.20e6 | 1.37e6 | inactive
Desat1 (Desaturase 1) | DRSC16668 | 64135 | 60708 | 1.26e6 | 1.02e6 | inactive
Desat1 (Desaturase 1) | DRSC23578 | 2.97e5 | 2.70e5 | 3.65e5 | 3.85e5 | inactive
alt (aluminum tubes) | DRSC15315 | 33067 | 94757 | 3.79e5 | 4.93e5 | inactive
alt (aluminum tubes) | DRSC28347 | 5.02e5 | 5.61e5 | 6.47e5 | 1.04e6 | inactive
dgt3 (dim gamma-tubulin 3) | DRSC04349 | 9.75e5 | 7.93e5 | 1.64e6 | 1.94e6 | inactive
CG43307 | DRSC00893 | 4.18e5 | 7.38e5 | 1.18e6 | 1.65e6 | inactive
CG12990 | DRSC19510 | 5.49e5 | 5.94e5 | 4.15e6 | 3.77e6 | inactive
CG17048 | DRSC06649 | 3.13e5 | 2.54e5 | 2.19e6 | 1.80e6 | inactive
Mocs2A + Mocs2B | DRSC13697 | 5.11e5 | 4.26e5 | 2.62e6 | 3.73e6 | inactive
Mocs2A + Mocs2B | DRSC14219 | 1.93e5 | 1.61e5 | 2.10e6 | 2.12e6 | inactive
Uhg1 (U snoRNA host gene 1) | DRSC26214 | 2.88e5 | 3.54e5 | 7.72e5 | 4.75e5 | inactive
CG4520 | DRSC15590 | 1.65e5 | 2.24e5 | 2.20e6 | 2.39e6 | inactive
CG4520 | DRSC26216 | 3.52e5 | 3.65e5 | 8.94e5 | 7.77e5 | inactive
sif (still life) | DRSC08759 | 1.32e5 | 1.42e5 | 2.45e5 | 3.00e5 | inactive
sif (still life) | DRSC11395 | 3.24e5 | 2.23e5 | 3.64e6 | 3.56e6 | inactive
sif (still life) | DRSC22065 | 7.98e5 | 6.25e5 | 2.43e6 | 2.11e6 | inactive
sif (still life) | DRSC22828 | 4.01e5 | 1.20e6 | 7.26e5 | 9.85e5 | inactive
sif (still life) | DRSC26730 | 5.46e5 | 5.71e5 | 5.31e5 | 5.40e5 | inactive
DIP2 (DISCO Interacting Protein 2) | DRSC08582 | 1.08e6 | 1.33e6 | 1.09e6 | 1.23e6 | inactive
